Results are given in words; binding and its absence hold for the method and conditions named.
Molecular target: N-terminal half of adseverin (A1–A3, residues 1–365) (UniProt Q9Y6U3)
Experiment: SAXS; A1–A3 at 1, 2, 4 and 8 mg/ml in 20 mM Tris-HCl pH 7.2, 150 mM NaCl, with 2 or 10 mM EGTA or free Ca2+ from 19 nM to 50 mM, 20 °C; molecular weight estimated from scattering; both purified

Chains of the proteins cited; added tags and fusions are not shown. Residues count along the entry.
UniProt Q9Y6U3, residues 1-365: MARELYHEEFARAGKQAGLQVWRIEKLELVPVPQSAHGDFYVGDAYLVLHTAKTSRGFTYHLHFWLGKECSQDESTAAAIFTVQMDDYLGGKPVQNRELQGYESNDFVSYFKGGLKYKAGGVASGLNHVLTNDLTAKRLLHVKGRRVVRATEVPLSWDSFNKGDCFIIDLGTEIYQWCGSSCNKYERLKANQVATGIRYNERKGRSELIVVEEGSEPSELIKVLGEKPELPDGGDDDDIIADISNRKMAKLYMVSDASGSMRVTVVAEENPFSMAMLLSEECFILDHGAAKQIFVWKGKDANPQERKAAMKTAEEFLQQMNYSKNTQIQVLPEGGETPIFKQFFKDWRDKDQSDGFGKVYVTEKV

binding: no binding (tested: 8 mg ml^−1)
Substance: N-terminal half of adseverin (A1–A3, residues 1–365) (from UniProt Q9Y6U3 1-365) (domain or fragment)

Reference: PMC4647846
